# The entries are a selection whose mix differs from that of the whole data set. For some assays here: At the low end of the ranking the order means little. The list shows a part of the results. For some assays here: The exact form of the protein is not confirmed.
# By UniProt entry, the sequences of proteins in these tests, tags left out. Where a name states a change or a piece, a line headed by the entry shows the natural chain unless it says otherwise.
# UniProt P32519: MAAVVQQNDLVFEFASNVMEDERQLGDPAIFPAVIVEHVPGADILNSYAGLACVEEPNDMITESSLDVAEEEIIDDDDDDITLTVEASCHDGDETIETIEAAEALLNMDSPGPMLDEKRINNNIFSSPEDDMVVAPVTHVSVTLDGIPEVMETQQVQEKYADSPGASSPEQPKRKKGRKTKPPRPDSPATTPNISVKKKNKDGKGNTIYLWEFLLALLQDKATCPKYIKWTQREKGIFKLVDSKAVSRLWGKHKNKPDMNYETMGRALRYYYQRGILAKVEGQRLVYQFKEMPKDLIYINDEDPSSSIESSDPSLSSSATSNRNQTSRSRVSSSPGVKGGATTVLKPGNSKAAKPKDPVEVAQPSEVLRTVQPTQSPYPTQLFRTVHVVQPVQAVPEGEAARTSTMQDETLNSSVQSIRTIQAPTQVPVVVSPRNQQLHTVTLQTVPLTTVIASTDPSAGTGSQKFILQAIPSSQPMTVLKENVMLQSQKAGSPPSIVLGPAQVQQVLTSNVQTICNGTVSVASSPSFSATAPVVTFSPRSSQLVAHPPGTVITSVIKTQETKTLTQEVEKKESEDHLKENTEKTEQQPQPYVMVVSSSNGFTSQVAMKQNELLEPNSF
# UniProt P50549: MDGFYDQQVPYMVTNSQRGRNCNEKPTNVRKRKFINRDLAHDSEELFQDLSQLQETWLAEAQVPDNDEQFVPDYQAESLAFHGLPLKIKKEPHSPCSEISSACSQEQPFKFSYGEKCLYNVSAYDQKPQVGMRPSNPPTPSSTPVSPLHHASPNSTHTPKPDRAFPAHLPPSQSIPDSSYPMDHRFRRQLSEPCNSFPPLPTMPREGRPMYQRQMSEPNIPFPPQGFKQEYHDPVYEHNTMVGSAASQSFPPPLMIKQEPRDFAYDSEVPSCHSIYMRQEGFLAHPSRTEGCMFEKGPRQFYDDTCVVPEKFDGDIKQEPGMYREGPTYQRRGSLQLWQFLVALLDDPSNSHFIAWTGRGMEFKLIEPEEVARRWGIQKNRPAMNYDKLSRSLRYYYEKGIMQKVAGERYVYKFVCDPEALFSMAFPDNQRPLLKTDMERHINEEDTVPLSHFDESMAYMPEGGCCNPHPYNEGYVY
# Legend:
# Assay in all cases: DAPPL (digital affinity profiling via proximity ligation, sequencing)
# Conditions in all cases: 10 mM Tris-HCl pH 7.5, 50 mM NaCl, 1 mM DTT, 4% glycerol, room temperature, 30 min; GST-TFs on glutathione beads, 16-mer random dsDNA library, 0.1% …; high values mean tight binding; double strand, one strand shown; scale: fold enrichment (6-mer frequency, TF over GST control)
# ERG = molecular target: T1, ERG (UniProt P11308)
# T1 sequence: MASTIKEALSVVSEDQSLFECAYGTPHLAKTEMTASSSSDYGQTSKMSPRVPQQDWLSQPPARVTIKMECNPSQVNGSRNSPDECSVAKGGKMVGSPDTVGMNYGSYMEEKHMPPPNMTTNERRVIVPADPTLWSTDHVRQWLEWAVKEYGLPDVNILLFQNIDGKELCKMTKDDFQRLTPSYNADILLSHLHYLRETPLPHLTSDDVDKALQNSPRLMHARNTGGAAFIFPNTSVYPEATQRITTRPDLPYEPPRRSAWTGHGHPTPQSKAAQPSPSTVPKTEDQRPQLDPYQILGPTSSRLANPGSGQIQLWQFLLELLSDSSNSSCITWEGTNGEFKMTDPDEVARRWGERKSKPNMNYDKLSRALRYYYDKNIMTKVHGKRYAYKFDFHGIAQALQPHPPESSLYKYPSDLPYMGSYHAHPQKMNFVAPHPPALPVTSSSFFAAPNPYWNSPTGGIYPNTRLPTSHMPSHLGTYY
# ELF1 = ELF1 (UniProt P32519)
# ELK4 = molecular target: T2, ELK4 (UniProt P28324-2)
# T2 sequence: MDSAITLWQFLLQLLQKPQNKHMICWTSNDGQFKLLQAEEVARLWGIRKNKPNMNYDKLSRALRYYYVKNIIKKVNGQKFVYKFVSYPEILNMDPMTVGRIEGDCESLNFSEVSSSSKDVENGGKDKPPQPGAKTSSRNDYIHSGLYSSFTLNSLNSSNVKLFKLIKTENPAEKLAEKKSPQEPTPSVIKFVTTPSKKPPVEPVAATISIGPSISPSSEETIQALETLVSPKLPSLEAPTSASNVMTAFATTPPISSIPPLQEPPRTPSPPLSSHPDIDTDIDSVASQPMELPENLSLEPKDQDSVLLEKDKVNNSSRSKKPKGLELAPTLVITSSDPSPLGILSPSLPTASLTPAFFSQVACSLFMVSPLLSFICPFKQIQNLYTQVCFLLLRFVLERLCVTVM
# ETV4 = molecular target: T3, ETV4 (UniProt P43268)
# T3 sequence: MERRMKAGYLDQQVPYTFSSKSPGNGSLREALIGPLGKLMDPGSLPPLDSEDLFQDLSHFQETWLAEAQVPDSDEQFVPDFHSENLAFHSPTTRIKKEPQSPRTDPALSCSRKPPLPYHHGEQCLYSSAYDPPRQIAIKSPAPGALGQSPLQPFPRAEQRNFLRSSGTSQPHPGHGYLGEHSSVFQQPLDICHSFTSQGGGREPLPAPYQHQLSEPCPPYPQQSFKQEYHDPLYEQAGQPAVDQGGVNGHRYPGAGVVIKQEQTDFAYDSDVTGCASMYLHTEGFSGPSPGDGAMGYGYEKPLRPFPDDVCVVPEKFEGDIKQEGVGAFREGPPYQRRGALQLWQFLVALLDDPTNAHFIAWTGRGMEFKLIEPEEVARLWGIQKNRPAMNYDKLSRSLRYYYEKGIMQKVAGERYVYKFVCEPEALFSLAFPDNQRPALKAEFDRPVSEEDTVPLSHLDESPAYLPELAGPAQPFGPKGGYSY
# ETV1 = ETV1 (UniProt P50549)
# ERF = molecular target: T4, ERF (UniProt P50548)
# T4 sequence: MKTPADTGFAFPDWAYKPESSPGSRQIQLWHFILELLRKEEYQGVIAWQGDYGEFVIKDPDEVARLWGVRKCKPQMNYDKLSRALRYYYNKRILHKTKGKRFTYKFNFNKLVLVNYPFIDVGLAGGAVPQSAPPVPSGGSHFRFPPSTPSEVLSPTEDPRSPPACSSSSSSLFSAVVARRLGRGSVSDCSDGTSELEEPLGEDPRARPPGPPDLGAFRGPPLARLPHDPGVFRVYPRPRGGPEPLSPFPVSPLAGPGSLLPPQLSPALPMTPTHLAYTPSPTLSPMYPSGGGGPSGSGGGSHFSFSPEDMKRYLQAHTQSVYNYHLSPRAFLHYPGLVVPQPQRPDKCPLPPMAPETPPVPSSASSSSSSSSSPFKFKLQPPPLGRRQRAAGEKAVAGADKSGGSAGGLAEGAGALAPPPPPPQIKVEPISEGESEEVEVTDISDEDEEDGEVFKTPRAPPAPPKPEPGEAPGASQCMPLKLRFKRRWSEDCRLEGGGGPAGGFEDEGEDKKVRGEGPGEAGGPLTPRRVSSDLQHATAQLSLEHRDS
Sequence,binding signal (ERG),binding signal (ELF1),binding signal (ELK4),binding signal (ETV4),binding signal (ETV1),binding signal (ERF)
GTGATT,0.754,0.703,0.752,0.749,0.789,0.765
GTGTAT,0.872,0.915,0.955,0.993,0.86,0.957
GCCGGC,0.8,0.75,0.825,0.844,0.855,0.757
GGAGCT,0.647,0.593,0.552,0.594,0.645,0.617
TCAGTG,0.727,0.806,0.882,0.823,0.786,0.94
TCGGGG,0.451,0.413,0.403,0.439,0.412,0.394
CAGCGA,0.908,0.906,0.926,0.868,0.872,0.828
GTCATG,0.815,0.755,0.824,0.802,0.902,0.877
AGCCGG,0.63,0.584,0.565,0.607,0.627,0.538
GTGGGT,0.471,0.492,0.433,0.463,0.446,0.536
GCGAGG,0.673,0.629,0.573,0.591,0.629,0.618
GTAAGA,0.83,0.792,0.856,0.798,0.797,0.83
CAGGGC,0.769,0.739,0.864,0.802,0.796,0.816
GGTGAG,0.34,0.379,0.436,0.337,0.338,0.385
CAGTTG,0.476,0.465,0.565,0.477,0.475,0.436
ATCGGC,0.645,0.639,0.724,0.703,0.595,0.641
GAGGAT,0.556,0.562,0.532,0.569,0.597,0.598
GGCCAC,0.937,–,0.949,1.04,0.994,0.935
AGGCCG,0.506,0.454,0.442,0.461,0.458,0.502
TGGAGA,0.366,0.433,0.393,0.381,0.409,0.46
GGAATC,0.76,0.685,0.666,0.73,0.727,0.703
AGAGGC,0.735,0.664,0.756,0.678,0.722,0.735
AGACCC,0.716,0.699,0.617,0.719,0.693,0.619
GGCGGG,0.348,0.33,0.338,0.324,0.368,0.344

Sequence,binding signal (ERG),binding signal (ELF1),binding signal (ELK4),binding signal (ETV4),binding signal (ETV1),binding signal (ERF)
TTGGAG,0.468,0.53,0.515,0.499,0.474,0.486
AGATAC,0.955,0.96,0.972,0.901,0.985,0.891
CTGGGA,0.808,0.808,0.802,0.892,0.797,0.796
AGGGGG,0.664,0.594,0.572,0.601,0.64,0.646
CAGGTA,0.818,0.725,0.809,0.77,0.827,0.869
GGACTG,0.691,0.764,0.747,0.697,0.676,0.704
CATCGG,0.699,0.709,0.764,0.771,0.678,0.686
TGGAGC,0.643,0.642,0.654,0.604,0.702,0.563
CAGTAC,0.822,0.839,0.812,0.86,0.837,0.81
GGCCGG,0.644,0.493,0.537,0.604,0.616,0.529
AGAACG,0.427,0.423,0.432,0.412,0.473,0.463
ATCAGT,0.821,0.823,0.935,0.806,0.784,0.926
CAAGTG,0.725,0.75,0.72,0.688,0.714,0.738
TCGTAA,0.925,0.892,0.76,0.925,0.96,0.984
GGTGTG,0.747,0.684,0.692,0.713,0.741,0.656
TGTGTG,0.784,0.813,0.935,0.819,0.926,0.753
GAGTTG,0.457,0.526,0.504,0.544,0.46,0.511
ATGTCG,0.674,0.66,0.671,0.627,0.569,0.646
GTGTCA,0.828,0.851,0.908,0.807,0.837,0.818
CACAGG,0.929,0.88,0.832,0.871,0.867,0.942
CTGGAG,0.657,0.684,0.609,0.641,0.686,0.707
ACCAGC,0.891,0.923,0.886,0.884,0.814,0.866
GCGGGG,0.485,0.467,0.486,0.467,0.519,0.435

# Some of the entries above in a different format.
Sequence	binding signal (ERG)	binding signal (ELF1)	binding signal (ELK4)	binding signal (ETV4)	binding signal (ETV1)	binding signal (ERF)
CACAGG	0.929	0.88	0.832	0.871	0.867	0.942
CTGGAG	0.657	0.684	0.609	0.641	0.686	0.707
ACCAGC	0.891	0.923	0.886	0.884	0.814	0.866

# From publication PMC7862700
